Reference: the supplement of paper PMC10735217
Structures can show the parent of a compound that is named as a salt. Some of the results follow. Single values are uncertain here, since repeats match poorly.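 In a drug-repurposing library screen, luminescence reads luciferase driven by eight TEAD-binding elements, stably integrated into human kidney-derived cells. Compounds scoring over five robust Z scores above the plate mean are called hits.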

System: HEK293A TEAD-LUC reporter
Assay: TEAD-luciferase reporter activity (YAP activation), robust Z score vs plate; higher = stronger YAP/TEAD activation
Settings: 24 h

| Compound | TEAD-luciferase reporter activity (compound concentration: 200 nM) | TEAD-luciferase reporter activity (compound concentration: 2 uM) | TEAD-luciferase reporter activity (compound concentration: 10 uM) |
| --- | --- | --- | --- |
| CC[C@]12CC[C@H]3[C@@H](CCC4=C[C@@H](O)CC[C@@]43C)[C@@H]1CC[C@@H]2O | inactive: -2.81 | inactive: 0.354 | inactive: 0.999 |
| O=C(N/N=C/c1ccc([N+](=O)[O-])o1)c1cc([N+](=O)[O-])cc([N+](=O)[O-])c1O | inactive: 0.771 | inactive: 2.13 | inactive: 0.0638 |
| CCC1(O)CC(=O)OCc2c1cc1n(c2=O)Cc2cc3ccccc3nc2-1 (stereo not drawn) | inactive: -2.5 | inactive: -1.8 | inactive: -0.401 |
| O=C(NC1CN2CCC1CC2)c1cc2ccoc2cn1 (stereo not drawn) | inactive: -0.939 | inactive: -0.925 | inactive: 0.774 |
| O=[As][O-] [Sodium metaarsenite] | inactive: 0.229 | inactive: -0.627 | inactive: -0.162 |
| CCCN(CCC)C1CCc2ccc(O)cc2C1 (stereo not drawn) | inactive: -1.43 | inactive: -1.79 | inactive: -2.02 |
| O=C(O)CCNC(=O)[C@H](Cc1ccc(-c2ccccc2)cc1)NCP(=O)(Oc1ccccc1)Oc1ccccc1 | inactive: -0.694 | inactive: 0.405 | inactive: 3.98 |
| O=[N+]([O-])[O-]->[Pt+2]1(<-[NH2][C@@H]2CCCC[C@H]2[NH2]->1)<-[O-][N+](=O)[O-] [Oxaliplatin Related Compound B] | inactive: 1.86 | inactive: -0.965 | inactive: 0.65 |
| c1cnc2c(c1)O[C@H]1CCN3CC[C@@]1(C2)C3 [Dianicline] | inactive: -0.955 | inactive: -2.32 | inactive: -0.966 |
| COc1c2c(cc3c1C(O)N(C)CC3)OCO2 (stereo not drawn) | inactive: -1.38 | inactive: -1.48 | inactive: 3.79 |
| C[C@@H](CN1CCC2(C)c3cccc(O)c3CC1C2(C)C)OCc1ccccc1 (stereo partly drawn) | inactive: -0.724 | inactive: -0.092 | inactive: -0.726 |
| CCO[C@H]1O[C@@H]2O[C@@]3(C)CC[C@H]4[C@H](C)CC[C@@H]([C@H]1C)[C@@]24OO3 [arteether] | inactive: -1.69 | inactive: -1.79 | inactive: 0.698 |
| CCO[C@H]1O[C@@H]2O[C@@]3(C)CC[C@H]4[C@H](C)CC[C@@H]([C@H]1C)[C@@]24OO3 |  | inactive: 0.731 |  |
| CCN(C(=O)CNC(=O)C(CCS(C)=O)NC(=O)C(N)Cc1ccc(O)cc1)C(Cc1ccccc1)C(=O)NNC(C)=O (stereo not drawn) | inactive: -1.25 | inactive: 0.598 | inactive: -1.51 |
| CN[C@@H]1Cc2cccc3nc(O)n(c23)C1 | inactive: -1.44 | inactive: 1.76 | inactive: -1.8 |
| COc1ccc2c(C(=O)c3ccc(Cl)cc3)c(C)n(CC(=O)O)c2c1 | inactive: -0.67 |  | inactive: 3.66 |
| Oc1cc(Cl)c(Cl)cc1Cl | inactive: -1.69 | inactive: -0.508 | inactive: -1.43 |
| Cc1ccc2c(c1)C(c1ccccc1)=NCC(=O)N2CCCCN1CCN(c2ccccc2)CC1 | inactive: -0.964 | inactive: -0.237 | inactive: -1.82 |
| O=C(c1cnc(Nc2cccc(Cl)c2)nc1C(F)(F)F)N1CCCCC1 | inactive: 0.427 | inactive: -0.649 | inactive: -0.951 |
| C=C(c1ccc(C2CCCCC2)cc1)C1COC2(OO1)C1CC3CC(C1)CC2C3 (stereo not drawn) | inactive: -1.05 | inactive: 2.75 | inactive: 3.47 |

Quoted at random: 2 entries already listed

| Compound | TEAD-luciferase reporter activity (compound concentration: 200 nM) | TEAD-luciferase reporter activity (compound concentration: 2 uM) | TEAD-luciferase reporter activity (compound concentration: 10 uM) |
| --- | --- | --- | --- |
| C=C(c1ccc(C2CCCCC2)cc1)C1COC2(OO1)C1CC3CC(C1)CC2C3 (stereo not drawn) | inactive: -1.05 | inactive: 2.75 | inactive: 3.47 |
| CCN(C(=O)CNC(=O)C(CCS(C)=O)NC(=O)C(N)Cc1ccc(O)cc1)C(Cc1ccccc1)C(=O)NNC(C)=O (stereo not drawn) | inactive: -1.25 | inactive: 0.598 | inactive: -1.51 |

(list continues)

| Compound | TEAD-luciferase reporter activity (compound concentration: 200 nM) | TEAD-luciferase reporter activity (compound concentration: 2 uM) | TEAD-luciferase reporter activity (compound concentration: 10 uM) |
| --- | --- | --- | --- |
| Oc1c(I)cc(I)cc1I | inactive: -0.409 | inactive: -0.546 | inactive: -1.05 |
| N#Cc1cn([C@@H]2O[C@H](CO)[C@H](O)[C@@H]2O)c2ncnc(N)c12 [Toyocamycin] | inactive: 0.168 | inactive: -1.12 | active: 7.58 |
| CC[C@@H](CO)NC(=O)[C@@H]1C=C2c3cccc4c3c(cn4C)C[C@H]2N(C)C1 [Methysergide maleate] | inactive: -1.11 | inactive: -0.764 | inactive: -0.164 |
| c1cncc(N2CCC3(CCCN3)C2)c1 (stereo not drawn) | inactive: 0.202 | inactive: 1.38 | inactive: -0.76 |
| CN1CCCC(=C(c2cccs2)c2cccs2)C1 | inactive: 0.374 | active: 5.04 | inactive: 2.48 |
| Clc1cccc(SC2CCNCC2)n1 [anpirtoline] | inactive: -0.227 | inactive: 0.187 | inactive: -0.261 |
| Cc1nc2cc(NC(=O)c3cc4cnccc4n3Cc3cccc(F)c3)ccc2n1C | inactive: -1.06 | inactive: 0.0158 | inactive: -0.484 |
| Cc1ncc(CNC(=O)N(CCCl)N=O)c(N)n1 [nimustine] | inactive: 0.634 | inactive: -0.163 | inactive: 0.0663 |
| CCOC(=O)C1(c2ccccc2)CCN(CCN2CCOCC2)CC1 | inactive: -0.384 | inactive: -1.18 | inactive: -1.8 |
| CN1Cc2cc(Cl)ccc2-n2c(nnc2C2CCC(Oc3ccccn3)CC2)C1 (stereo not drawn) | inactive: -0.602 | inactive: -0.751 | inactive: 1.55 |
| O=P1(NCCCl)OCCC(OO)N1CCCl (stereo not drawn) [4-Hydroperoxyifosfamide] | inactive: -0.157 | inactive: -0.0779 | inactive: 1.37 |
| Clc1ccc(OCC2=NCCN2)cc1Cl [fenmetozole] | inactive: -0.185 | inactive: -0.906 | inactive: -0.371 |
| CCCN(CCC)Cc1nc(-c2ncn3c2CN(C)C(=O)c2cc(F)ccc2-3)no1 | inactive: -0.555 | inactive: -0.0979 | inactive: 2.72 |
| Clc1ccc([C@@]23CNC[C@@H]2C3)cc1Cl | inactive: -0.632 | inactive: -0.858 | inactive: 0.369 |
| CC(=O)O[C@H]1CC[C@@]2(C)C(=CC[C@H]3[C@@H]4CC[C@H](OC(C)=O)[C@@]4(C)CC[C@@H]32)C1 [Androstenediol diacetate] | inactive: -0.781 | inactive: 1.21 | inactive: 0.551 |
| CC(C)(NC(=O)O[C@@H]1CN2CCC1CC2)c1csc(-c2ccc(F)cc2)n1 | inactive: -1.48 | inactive: -1.32 | inactive: 1.59 |
| C/C(=C\C(N)C(=O)O)CP(=O)(O)O (stereo not drawn) | inactive: -1.36 | inactive: -0.859 | inactive: 0.325 |
| C[C@]12CCCCC1=CC[C@@H]1[C@@H]2CC[C@]2(C)C(=O)[C@H](F)C[C@@H]12 [Fluasterone] | inactive: -0.542 | inactive: 0.356 | inactive: -1 |
| CC(C)[C@H](NC(=O)[C@H](C(C)C)N(C)C)C(=O)N(C)[C@H](C(=O)N1CCC[C@H]1C(=O)N1CCC[C@H]1C(=O)NCc1ccccc1)C(C)C [Cemadotin hydrochloride] | inactive: -0.9 | active: 6.35 | inactive: 3.75 |
| CCC1CN(C)CCC1(OC(C)=O)c1ccccc1 (stereo not drawn) | inactive: -3.14 | inactive: -1.4 | inactive: -0.14 |

| Compound | TEAD-luciferase reporter activity (compound concentration: 200 nM) | TEAD-luciferase reporter activity (compound concentration: 2 uM) | TEAD-luciferase reporter activity (compound concentration: 10 uM) |
| --- | --- | --- | --- |
| CCN(CC)C(=O)c1ccc(C(c2ccccc2)N2C[C@@H](C)N(Cc3cccc(F)c3)C[C@@H]2C)cc1 (stereo partly drawn) | inactive: -0.626 | inactive: -1.33 | inactive: -0.796 |
| Fc1ccc(C(OCCN2CCN(CCCc3ccccc3)CC2)c2ccc(F)cc2)cc1 [vanoxerine] | inactive: -0.248 | inactive: -0.427 | inactive: -2.87 |
| COC[C@@H](NC(C)=O)C(=O)NCc1ccccc1 [lacosamide] | inactive: -0.764 | inactive: 1.97 | inactive: -0.413 |
| O=c1ccc2cc(OC3OC(CO)C(O)C(O)C3O)c(O)cc2o1 (stereo not drawn) [Aesculin (Esculetin_:_ Cichorigenin_:_ Esculetol)] |  | inactive: 0.0841 |  |
| CC12CCC3c4ccc(OC(=O)N(CCCl)CCCl)cc4CCC3C1CCC2OP(=O)([O-])[O-] (stereo not drawn) [estramustine phosphate sodium] | inactive: -0.396 | inactive: -1.02 | inactive: -0.468 |
| O=C(Nc1ccccc1F)N[C@H]1N=C(c2ccccc2)c2ccccc2NC1=O | inactive: -2.21 | inactive: -0.993 | inactive: -1.21 |
| COc1ccc2c3c1OC1C(O)C=CC4C(C2)[N+](C)(C)CCC341 (stereo not drawn) [Codeine methylbromide] |  | inactive: 1.25 |  |
| COc1ccc2c3c1OC1C(O)C=CC4C(C2)[N+](C)(C)CCC341 (stereo not drawn) | inactive: 0.22 |  | inactive: 2.45 |
| COC(=O)C(c1ccccc1)C1CCCCN1 (stereo not drawn) [Methylphenidate hydrochloride] |  | inactive: -0.321 |  |
| COC(=O)C(c1ccccc1)C1CCCCN1 (stereo not drawn) [methylphenidate HCl] | inactive: 0.534 | inactive: -0.0206 | inactive: -0.422 |
| CC(OC(N)=O)C(C)C(C)OC(N)=O (stereo not drawn) | inactive: 4.84 | inactive: 2.46 | inactive: -0.966 |
| CCC(=O)C1(c2cccc(O)c2)CCN(C)CC1 | inactive: -1.29 | inactive: 0.395 | inactive: 0.255 |
| CCCN1CCOC(c2cccc(O)c2)C1 (stereo not drawn) | inactive: 0.264 | inactive: -0.293 | inactive: -0.101 |
| ClC=C(Cl)Cl | inactive: 0.696 | inactive: -1.61 | inactive: 0.748 |
| CCOc1cncc(/C=C/CCNC)c1 | inactive: 1.04 | inactive: -1.51 | inactive: -0.266 |
| COc1cccc(S(=O)(=O)N2CCCC2C(=O)N2CCC(N3CCCC3=O)CC2)c1 (stereo not drawn) | inactive: 1.38 |  | active: 12.8 |
| COc1cc(C)nc(O)c1CNC(=O)c1c(C)n([C@H](C)C2CCOCC2)c2ccccc12 | inactive: -0.335 | inactive: 0.826 | inactive: -1.32 |
| COc1ccc(C[C@@H](C)NCC(O)c2cc(O)cc(O)c2)cc1 (stereo partly drawn) [(R,R)-4-Methoxyfenoterol] | inactive: -0.169 | inactive: 0.575 | inactive: 1.76 |
